# From ChEMBL document CHEMBL4513147, “CO-ADD screening of Armstrong State University (GA, USA) compounds”
# The list shows a part of the results. Potency and affinity values are given separately.
# Test system: Acinetobacter baumannii
# Conditions: Concentration 32 ug.mL-1; ASSAY_TEST Inhibition of Bacterial Growth; detection method Absorption (OD600); MEDIA CAMHB; plate type 384well; NBS; CORNING #3640; time 18 hr
row,Structure (SMILES),Inhibition [%]
1,COc1cccc2c1CCC(=Cc1ccco1)C2=O,3.07
2,COc1ccc2c(c1)C(=O)C(=Cc1ccoc1)CC2,-3.92
3,COc1cc2c(cc1OC)C(=O)C(=Cc1ccco1)CC2,-3.09
4,Cc1ccc(C=C2CN(C(=O)OC(C)(C)C)C/C(=C\c3ccc(C)cc3C)C2=O)c(C)c1,-11.33
5,COc1ccc2c(c1)CCC(=Cc1ccc(OC)nc1)C2=O,3.41
6,CC(C)(C)OC(=O)N1CC(=Cc2ccco2)C(=O)/C(=C/c2ccco2)C1,-0.53
7,COc1ccc2c(c1)C(=O)C(=Cc1cnccc1OC)CC2,-6.71
8,COc1cccc2c1CCC(=Cc1ccoc1)C2=O,-6.87
9,COc1ccc2c(c1)C(=O)C(=Cc1cccnc1)CC2,-4
10,COc1ccc2c(c1)C(=O)C(=Cc1cncc(Br)c1)CC2,1.66
11,COc1ccc2c(c1)CCC(=Cc1ccncc1)C2=O,1
12,COc1ccc2c(c1)C(=O)C(=Cc1ccccn1)CC2,2.72
13,COc1ccc2c(c1)C(=O)C(=Cc1cccnc1Cl)CC2.Cl,0.91
14,COc1ccc2c(c1)C(=O)C(=Cc1ccco1)CC2,-0.23
15,COc1ccc2c(c1)CCC(=Cc1cccnc1)C2=O,6.33
16,COc1ccc(/C=C/C(=O)c2ccc(OCc3ccc(Br)cc3)cc2)cc1OC,-16.28

row,Structure (SMILES),Inhibition [%]
1,COc1cc2c(cc1OC)C(=O)C(=Cc1ccoc1)CC2,-5.62
2,COc1ccc2c(c1)CCC(=Cc1ccoc1)C2=O,1.83
3,COc1ccc2c(c1)CCC(=Cc1cccnc1Br)C2=O,-2.26
4,COc1ccc2c(c1)C(=O)C(=Cc1cccnc1Cl)CC2,-0.01
5,COc1ccc2c(c1)C(=O)C(=Cc1cccnc1OC)CC2,-2.61
6,COc1ccc2c(c1)CCC(=Cc1cccnc1Cl)C2=O,-4.35
7,COc1ccc2c(c1)CCC(=Cc1cnccc1OC)C2=O,-5.38
8,COc1ccc2c(c1)C(O)C(=Cc1cccnc1Cl)CC2 (stereo unspecified),1.16
9,COc1ccc2c(c1)C(=O)C(=Cc1cccc(C=C3CCc4ccc(OC)cc4C3=O)c1)CC2,-5.46
10,COc1ccc2c(c1)CCC(=Cc1ccccn1)C2=O,2.14
11,COc1ccc2c(c1)CCC(=Cc1cncc(Br)c1)C2=O,-2.32
12,CC(C)(C)OC(=O)N1CC(=Cc2ccoc2)C(=O)/C(=C/c2ccoc2)C1,-7.55
13,COc1ccc2c(c1)CCC(=Cc1ccco1)C2=O,5.68
14,COc1ccc2c(c1)C(=O)C(=Cc1cccnc1Br)CC2,0.79
15,COc1cccc2c1CCC(=Cc1cccc(C=C3CCc4c(OC)cccc4C3=O)c1)C2=O,-17.81

# 3 entries already listed, arranged by formula weight, falling.
row,Structure (SMILES),Inhibition [%]
10,COc1ccc2c(c1)C(=O)C(=Cc1cncc(Br)c1)CC2,1.66
8,COc1ccc2c(c1)C(O)C(=Cc1cccnc1Cl)CC2 (stereo unspecified),1.16
15,COc1ccc2c(c1)CCC(=Cc1cccnc1)C2=O,6.33
